In publication PMC8298096:
No constants are given. Whether binding was seen depends on the method and setting.

The chains behind the UniProt entries cited, without tags or fusion partners. Residues count along the entry.
UniProt Q5GH54, residues 1-357: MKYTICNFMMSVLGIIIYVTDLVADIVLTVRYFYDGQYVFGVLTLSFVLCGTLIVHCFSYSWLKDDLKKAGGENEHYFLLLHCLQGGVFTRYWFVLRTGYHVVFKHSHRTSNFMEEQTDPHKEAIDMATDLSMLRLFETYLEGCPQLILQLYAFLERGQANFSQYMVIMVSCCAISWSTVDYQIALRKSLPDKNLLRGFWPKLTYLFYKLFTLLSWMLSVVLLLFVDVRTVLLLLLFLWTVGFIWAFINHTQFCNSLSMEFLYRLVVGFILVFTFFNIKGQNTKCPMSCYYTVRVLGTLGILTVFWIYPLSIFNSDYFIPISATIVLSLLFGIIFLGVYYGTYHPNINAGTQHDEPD

Biological target: caspase-3-cleaved rXKR9 (Rattus norvegicus) (UniProt Q5GH54)
Assay: SEC; detergent-solubilised protein on Superdex 200 10/300 GL; 25 mM HEPES pH 7.5, 200 mM NaCl, 0.01% LMNG; 4°C; both purified

Question: “caspase-3-cleaved rXKR9 (from UniProt Q5GH54 1-357) (domain or fragment)” was tested. Which binding did it give?
Answer: no binding
